PubChem BioAssay AID330 (DTP/NCI, 2004)
The list shows only some results of the screen, not a fair sample: it gathers tests that were run many times, whatever their T/C, doses with no T/C, and many T/C values between a quarter and a half above the control. Further doses and runs are listed elsewhere. T/C is the treated group as % of the vehicle group. Some entries give survivors of the animals treated and no T/C: the source holds a T/C of zero for them, seemingly a mark for toxic or unscored doses. Some doses without a T/C left all or most animals alive at the check, yet need not have been tolerated: the source hardly ever lists a survival T/C far under the control, and the zero likely stands for such cases as well. Survivors were counted at the toxicity check, usually on the fifth day, unless a day is given; later deaths do not show. Schedules are NCI's codes, taken here to give the interval after Q, in days (D) or hours (H), and the number of doses after X. Some entries hold several experiments; the values are given in rising order. Where survival is the endpoint, the PubChem record calls one and a half times the control and up active, and a quarter to a half above the control has no call in these data; cut-offs in other NCI protocols can differ. Some T/C values are followed by the survivors on the day toxicity was checked, most often the fifth; where none is given, no animal had died by that day.

Tested on: P388 leukemia ip, CD2F1 mice, survival T/C
Assay: NCI In Vivo Anticancer Drug Screen. Data for tumor model P388 Leukemia (intraperitoneal) in CD2F1 (CDF1) mice
Conditions: T/C endpoint: median survival time, higher T/C = longer survival
[1] = dose: 120.0 mg/kg/injection, schedule: Q01DX005 (ip), vehicle: saline with Tween-80
[2] = dose: 240.0 mg/kg/injection, schedule: Q01DX005 (ip), vehicle: saline with Tween-80
[3] = dose: 200.0 mg/kg/injection, schedule: Q01DX005 (ip), vehicle: saline
[4] = dose: 2.0 mg/kg/injection, schedule: Q01DX009 (ip), vehicle: water
[5] = dose: 50.0 mg/kg/injection, schedule: Q01DX005 (ip), vehicle: saline with Tween-80
[6] = dose: 100.0 mg/kg/injection, schedule: Q01DX005 (ip), vehicle: saline with Tween-80
[7] = dose: 200.0 mg/kg/injection, schedule: Q01DX005 (ip), vehicle: saline with Tween-80
[8] = dose: 100.0 mg/kg/injection, schedule: Q01DX005 (ip), vehicle: Klucel (hydroxypropylcellulose) (HPC)
[9] = dose: 200.0 mg/kg/injection, schedule: Q01DX005 (ip), vehicle: Klucel (hydroxypropylcellulose) (HPC)
[10] = dose: 50.0 mg/kg/injection, schedule: Q01DX009 (ip), vehicle: saline
[11] = dose: 200.0 mg/kg/injection, schedule: Q01DX009 (ip), vehicle: saline
[12] = dose: 200.0 mg/kg/injection, schedule: Q04DX003 (ip), vehicle: saline with Tween-80

COc1ccc2cc1Oc1ccc(cc1)C[C@H]1c3cc(c(OC)cc3CCN1C)Oc1c(OC)c(OC)cc3c1[C@H](C2)N(C)CC3
survivor count (dose: 100.0 mg/kg/injection, schedule: Q01DX009 (ip), vehicle: other): 6 of 6 | survivor count (dose: 200.0 mg/kg/injection, schedule: Q01DX009 (ip), vehicle: other): 1 of 6

CN1C2=CC=CC=CC2=[N+](C)C1C(=C=[N-])C#N (stereo unspecified)
survivor count [1]: 3 of 6 | survivor count [2]: 0 of 6

O=C(Nc1ccccc1C1=NCCN1)Nc1ccccc1C1=NCCN1
survivor count [3]: 2 of 6

CS(=O)(=O)Nc1ccc(Nc2c3ccccc3nc3cc(Cl)ccc23)cc1
T/C (dose: 50.0 mg/kg/injection, schedule: Q04DX003 (ip), vehicle: saline): 145 % of control

O=C(O)/C=C/c1ccc([N+](=O)[O-])cc1
survivor count (dose: 400.0 mg/kg/injection, schedule: Q01DX009 (ip), vehicle: saline with Tween-80): 3 of 3

O=C1OC(=O)C2CCCC1C2
survivor count (dose: 400.0 mg/kg/injection, schedule: Q01DX009 (ip), vehicle: Klucel (hydroxypropylcellulose) (HPC)): 0 of 6

CS(=O)(=O)OCC(O)C(O)CI (stereo unspecified)
survivor count [3]: 6 of 6

CCC1=C[C@H]2CN(CCc3c([nH]c4ccccc34)[C@@](C(=O)OC)(c3cc4c(cc3OC)N(C)[C@H]3[C@@](O)(C(=O)OC)[C@H](OC(C)=O)[C@]5(CC)C=CCN6CC[C@]43[C@@H]65)C2)C1
T/C (dose: 0.05 mg/kg/injection, schedule: Q01DX009 (ip), vehicle: saline): 127 % of control | T/C (dose: 0.1 mg/kg/injection, schedule: Q01DX009 (ip), vehicle: saline): 125 % of control [5 of 6 alive] | T/C (dose: 0.25 mg/kg/injection, schedule: Q01DX009 (ip), vehicle: water): 130 % of control | T/C (dose: 0.5 mg/kg/injection, schedule: Q01DX009 (ip), vehicle: water): 120, 141, 146, 158 % of control | T/C (dose: 1.0 mg/kg/injection, schedule: Q01DX009 (ip), vehicle: water): 118, 142, 187, 201 % of control | survivor count (dose: 1.6 mg/kg/injection, schedule: Q01DX009 (ip), vehicle: saline): 6 of 6 | T/C [4]: 90, 114, 173 % of control | survivor count [4]: 6 of 6 | survivor count (dose: 3.2 mg/kg/injection, schedule: Q01DX009 (ip), vehicle: saline): 6 of 6 | survivor count (dose: 4.0 mg/kg/injection, schedule: Q01DX009 (ip), vehicle: water): 4 of 6 | survivor count (dose: 6.4 mg/kg/injection, schedule: Q01DX009 (ip), vehicle: saline): 2 of 6 | survivor count (dose: 8.0 mg/kg/injection, schedule: Q01DX009 (ip), vehicle: water): 0 of 6 and 1 of 6 | survivor count (dose: 12.8 mg/kg/injection, schedule: Q01DX009 (ip), vehicle: saline): 0 of 6

S=c1nc[nH]c2ccc3[nH]ncc3c12
survivor count [5]: 6 of 6 | survivor count [6]: 5 of 6 | survivor count [7]: 6 of 6

CCC(C)C(=O)OC1CCC=C2C=CC(C)C(CCC3CC(O)CC(=O)O3)C21 (stereo unspecified)
survivor count (dose: 120.0 mg/kg/injection, schedule: Q01DX009 (ip), vehicle: saline): 6 of 6

OCC1OC(N(O)c2ccc(Oc3c(Cl)cc(Cl)cc3Cl)cc2)C(O)C(O)C1O (stereo unspecified)
survivor count (dose: 240.0 mg/kg/injection, schedule: Q01DX005 (ip), vehicle: Klucel (hydroxypropylcellulose) (HPC)): 1 of 6

COc1cc(/C=N/N2CN(C(C)C(=O)O)B(NCCC(C)C)N=C2N)cc(OC)c1 (stereo unspecified)
survivor count [2]: 0 of 6

CC1(C)SC(=O)C(=O)S1
survivor count (dose: 400.0 mg/kg/injection, schedule: Q04DX003 (ip), vehicle: saline): 0 of 6

C[CH2][Sn]([F])([CH2]C)[CH2]C
T/C (dose: 0.37 mg/kg/injection, schedule: Q01DX009 (ip), vehicle: saline with Tween-80): 137 % of control | T/C (dose: 0.75 mg/kg/injection, schedule: Q01DX009 (ip), vehicle: saline with Tween-80): 148 % of control | T/C (dose: 1.5 mg/kg/injection, schedule: Q01DX009 (ip), vehicle: saline with Tween-80): 142 % of control | T/C (dose: 3.0 mg/kg/injection, schedule: Q01DX009 (ip), vehicle: Klucel (hydroxypropylcellulose) (HPC)): 125 % of control | survivor count (dose: 6.0 mg/kg/injection, schedule: Q01DX009 (ip), vehicle: Klucel (hydroxypropylcellulose) (HPC)): 2 of 6, 3 of 6, 5 of 6 | survivor count (dose: 6.0 mg/kg/injection, schedule: Q01DX009 (ip), vehicle: saline with Tween-80): 5 of 6 | survivor count (dose: 12.0 mg/kg/injection, schedule: Q01DX009 (ip), vehicle: Klucel (hydroxypropylcellulose) (HPC)): 0 of 6

COc1ccc(C(C)(C)c2cc3c(cc2OC)OCO3)cc1
T/C (dose: 60.0 mg/kg/injection, schedule: Q01DX005 (ip), vehicle: saline with Tween-80): 125 % of control | T/C [1]: 125 % of control | survivor count [2]: 1 of 6 and 5 of 6

Cc1ncc2c(n1)CCC1=C2OS(=O)(=O)CC1N(C)C (stereo unspecified)
survivor count [7]: 0 of 6

Cc1c[nH]c2nc(C)n(-c3ccccc3)c(=N)c12
survivor count [8]: 2 of 6 | survivor count [9]: 0 of 6

CN(C)c1ccc(C(=C2C=CC(=Nc3ccccc3)c3ccccc32)c2ccc(N(C)C)cc2)cc1
survivor count (dose: 25.0 mg/kg/injection, schedule: Q01DX005 (ip), vehicle: Klucel (hydroxypropylcellulose) (HPC)): 4 of 6 | survivor count (dose: 50.0 mg/kg/injection, schedule: Q01DX005 (ip), vehicle: Klucel (hydroxypropylcellulose) (HPC)): 0 of 5 | survivor count [8]: 0 of 5 | survivor count [9]: 0 of 5

O=C1c2cccc3cccc(c23)C(=O)N1CCNCCN1C(=O)c2cccc3cccc(c23)C1=O
survivor count [1]: 6 of 6

CN(C)c1ccc2[nH]c3c(C(=O)O)cc(=O)c(=O)c=3oc2c1
survivor count [7]: 0 of 5

Cc1c(C#N)c(N)nc2c(C(N)=O)nsc12
survivor count [8]: 6 of 6 | survivor count [9]: 6 of 6

COc1cc2c(cc1Oc1ccc(OC)c3c1CC1c4c(cc(OC)c(OC)c4-3)CCN1C)CC1c3c(cc(OC)c(OC)c3-2)CCN1C (stereo unspecified)
survivor count (dose: 320.0 mg/kg/injection, schedule: Q01DX009 (ip), vehicle: water): 0 of 6

CSC(=S)N/N=C\C(C)=N/N=C(N)N
survivor count [10]: 1 of 6 | survivor count (dose: 100.0 mg/kg/injection, schedule: Q01DX009 (ip), vehicle: saline): 0 of 6 | survivor count [11]: 0 of 6

C/C(=N\N=c1\sc2ccccc2n1CC(=O)O)c1ccccc1
survivor count (dose: 400.0 mg/kg/injection, schedule: Q01DX001 (ip), vehicle: saline with Tween-80): 3 of 6

C/C(=N\[N+](C)(C)C)c1ccccc1
survivor count [12]: 6 of 6 | survivor count (dose: 400.0 mg/kg/injection, schedule: Q04DX003 (ip), vehicle: saline with Tween-80): 0 of 6

CSCCC(N)C(=O)OCN1C(=O)C2C3C=CC(C2C1=O)C1C2C(=O)N(COC(=O)C(N)CCSC)C(=O)C2C31 (stereo unspecified)
T/C [10]: 129 % of control | survivor count [11]: 6 of 6

COc1cc(/C=C2\C(=O)C=C(C)CC2(C)C)ccc1O
survivor count [12]: 6 of 6

CCCCCCCCCCCCCC1=NCCN1CCN
T/C (dose: 50.0 mg/kg/injection, schedule: Q01DX009 (ip), vehicle: saline with Tween-80): 135 % of control | survivor count [11]: 3 of 6

CCCC1CCCCN1C (stereo unspecified)
survivor count (dose: 25.0 mg/kg/injection, schedule: Q01DX005 (ip), vehicle: saline with Tween-80): 4 of 6 | survivor count [5]: 0 of 6 | survivor count [6]: 0 of 6 | survivor count [7]: 0 of 6

Clc1nnc(Cl)c(Cl)c1Cl
survivor count (dose: 0.4 mg/kg/injection, schedule: Q01DX009 (ip), vehicle: saline with Tween-80): 6 of 6 | survivor count (dose: 0.75 mg/kg/injection, schedule: Q04DX003 (ip), vehicle: saline with Tween-80): 5 of 6 | survivor count (dose: 1.5 mg/kg/injection, schedule: Q04DX003 (ip), vehicle: saline with Tween-80): 1 of 6

Nc1nccc(CCc2ccccc2)n1
survivor count [2]: 6 of 6

O=C1C=CC(=O)N1c1ccc(O)cc1
survivor count (dose: 5.0 mg/kg/injection, schedule: Q01DX009 (ip), vehicle: saline sonified): 6 of 6
